PubChem BioAssay AID1259308 – NCATS – 2017
The whole screen tested about 59,000 reagents; shown is an unselected part. About 1,510 of all reagents (2.6%) were called active. 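Calls use total luciferase alone and ignore viability, so some active siRNAs may act by altering cell number.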 Reagents against one gene are numbered here. Reagent sequences are not shown.

Test: 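Genes whose loss raises luciferase production in HEK293 cells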 (primary screen)
Cells: human HEK293 embryonic kidney cells stably expressing firefly luciferase (HEK-CMV-Luc2-Hygro)
Reagents: single siRNA against human genes, 0.8 pmol siRNA per well
Duration: 72 h
Measurement: 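Luciferase light (ONE-Glo) measured on one replicate plate set and viability (CellTiter-Glo) on the other, scaled to a negative control siRNA, with robust z-scores and luciferase per cell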
Reading the numbers: total luciferase, z-score and total luciferase, % of control: higher = more reporter protein produced; luciferase per cell, z-score: higher = more reporter output per viable cell; viable cells, % of control: higher = more viable cells
Call rule: 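An siRNA counts as active if its total luciferase robust z-score exceeds 3; genes with two or more such siRNAs out of three were retested with fresh siRNAs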
Calls: active = raised luciferase; inactive = no rise

Target gene	siRNA no.	total luciferase, z-score	total luciferase, % of control	luciferase per cell, z-score	viable cells, % of control	activity call
ZFAND2A (zinc finger AN1-type containing 2A)	1	1.75	117	0.952	101	inactive
ZFAND2A (zinc finger AN1-type containing 2A)	2	2.82	138	3.1	68.2	inactive
ZFAND2A (zinc finger AN1-type containing 2A)	3	1.73	116	0.975	101	inactive
LRBA-AS1 (LRBA antisense RNA 1)	1	0.102	83.9	-0.164	97.9	inactive
LRBA-AS1 (LRBA antisense RNA 1)	2	3.12	144	2.64	80.4	active
LRBA-AS1 (LRBA antisense RNA 1)	3	-0.367	74.6	0.668	69.9	inactive
MPP3 (MAGUK p55 scaffold protein 3)	1	-0.394	74.1	0.324	76	inactive
MPP3 (MAGUK p55 scaffold protein 3)	2	-0.798	66	-0.642	87.4	inactive
MPP3 (MAGUK p55 scaffold protein 3)	3	-0.967	62.7	-0.848	87.5	inactive
TMSB4X (thymosin beta 4 X-linked)	1	-0.785	66.3	-0.675	88.5	inactive
TMSB4X (thymosin beta 4 X-linked)	2	0.691	95.6	0.593	91.4	inactive
TMSB4X (thymosin beta 4 X-linked)	3	0.0597	83.1	-0.362	102	inactive
OR2L13 (olfactory receptor family 2 subfamily L member 13)	1	-1.18	58.3	-1.13	87.8	inactive
OR2L13 (olfactory receptor family 2 subfamily L member 13)	2	-0.849	65	0.166	69.5	inactive
OR2L13 (olfactory receptor family 2 subfamily L member 13)	3	1.92	120	2.61	67.5	inactive
ATP11C (ATPase phospholipid transporting 11C (ATP11C blood group))	1	0.401	89.9	0.962	78	inactive
ATP11C (ATPase phospholipid transporting 11C (ATP11C blood group))	2	-0.339	75.1	0.271	78.2	inactive
ATP11C (ATPase phospholipid transporting 11C (ATP11C blood group))	3	-1.05	61	-1.22	93.9	inactive
DOC2A (double C2 domain alpha)	1	0.0839	83.6	-0.31	101	inactive
DOC2A (double C2 domain alpha)	2	-0.85	65	-0.835	90.5	inactive
DOC2A (double C2 domain alpha)	3	4.16	165	2.69	90.6	active

Next part, starting with the last 2 of the part before.
Target gene	siRNA no.	total luciferase, z-score	total luciferase, % of control	luciferase per cell, z-score	viable cells, % of control	activity call
DOC2A (double C2 domain alpha)	2	-0.85	65	-0.835	90.5	inactive
DOC2A (double C2 domain alpha)	3	4.16	165	2.69	90.6	active
WDR20 (WD repeat domain 20)	1	-0.894	64.1	-1.57	108	inactive
WDR20 (WD repeat domain 20)	2	-1.11	59.7	-1.1	89.2	inactive
WDR20 (WD repeat domain 20)	3	0.831	98.4	0.145	106	inactive
NOS1AP (nitric oxide synthase 1 adaptor protein)	1	0.12	84.3	0.394	84.9	inactive
NOS1AP (nitric oxide synthase 1 adaptor protein)	2	-0.0188	81.5	-0.0994	93.5	inactive
NOS1AP (nitric oxide synthase 1 adaptor protein)	3	-0.498	72	-0.147	83.6	inactive
WFIKKN1	1	-1.69	48.3	-1.21	74.4	inactive
WFIKKN1	2	0.362	89.1	0.686	83.1	inactive
WFIKKN1	3	-0.366	74.6	-0.764	102	inactive
TBX22 (T-box transcription factor 22)	1	-2.76	26.9	-3.82	82.3	inactive
TBX22 (T-box transcription factor 22)	2	0.805	97.9	0.852	87.4	inactive
TBX22 (T-box transcription factor 22)	3	1.49	112	1.23	90.2	inactive
SOST (sclerostin)	1	-1.13	59.4	-0.741	80.7	inactive
SOST (sclerostin)	2	1.15	105	0.988	90.2	inactive
SOST (sclerostin)	3	0.199	85.8	-0.374	106	inactive
RAD51 (RAD51 recombinase)	1	-0.0681	80.5	0.78	73.3	inactive
RAD51 (RAD51 recombinase)	2	-1	62	-1.1	92.6	inactive
RAD51 (RAD51 recombinase)	3	-0.998	62	-0.771	84.9	inactive
